Our source for the binding values is publication PMC7847540.

Sequences of proteins named here, by UniProt entry; tags and fusion partners are left off. A change or cut given only in a name is not applied to a line headed by its entry.
UniProt P9WPB9, whole entry, stated change not applied: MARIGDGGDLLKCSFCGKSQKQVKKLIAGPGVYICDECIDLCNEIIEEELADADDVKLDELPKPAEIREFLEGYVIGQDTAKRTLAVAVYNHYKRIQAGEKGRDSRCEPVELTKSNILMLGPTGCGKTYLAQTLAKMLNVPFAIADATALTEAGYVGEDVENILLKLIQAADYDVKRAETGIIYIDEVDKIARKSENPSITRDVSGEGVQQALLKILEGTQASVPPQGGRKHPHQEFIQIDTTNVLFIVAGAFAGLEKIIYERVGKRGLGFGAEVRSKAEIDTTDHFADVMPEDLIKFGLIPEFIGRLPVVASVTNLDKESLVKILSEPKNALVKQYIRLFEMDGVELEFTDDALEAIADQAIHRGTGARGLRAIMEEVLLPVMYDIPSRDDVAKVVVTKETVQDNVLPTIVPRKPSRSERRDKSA

No constants are given. Whether binding was seen depends on the method and setting. In cells and extracts the contact can be indirect. These calls come from enrichment with a bait or labelling near it, and not all partners need be listed. A no says only that the protein was not detected with the bait.

The assay addresses N-terminally 6×His-tagged ClpX (His6ClpX) from M. tuberculosis, overproduced in M. smegmatis (M. tuberculosis) (UniProt P9WPB9). In words: affinity purification with mass spectrometry.

“single-stranded-DNA binding protein (SSB), M. smegmatis (from UniProt Q9AFI5 1-165)”: the binding result is recorded as “binds”.

On to “FtsZ, M. smegmatis (from UniProt A0R012 1-385)”, for which the binding result was “no binding”.
